Test results published in patent US20230332232A1, “COMPOSITIONS AND METHODS FOR DIAGNOSING AND TREATING A DYSTONIA” (Duke University, priority 2020, published 2023).

Legend:
MEF EVs [1] = assay: Original untargeted proteomics MEF discovery dataset (average peptide intensity); format: cell-based, mouse; details: peptide of the PRM panel; original MEF EV proteomics dataset
[2] = system: hiPSC-derived neural progenitor cells (NPCs) EVs; assay: Parallel reaction monitoring (PRM) targeted proteomics of EVs from hiPSC-derived neural progenitor cells; format: cell-based, human
MEF EVs [3] = assay: Untargeted discovery proteomics of MEF EVs (MEF Discovery Dataset), average peptide intensity; format: cell-based, mouse; details: peptide of the PRM panel in the original proteomics dataset
[4] = EVs from human iPSC-derived NPC pool, present/absent

Substance	Avg. Intensity in MEF Discovery Dataset (MEF EVs [1])	Detected in NPC Pool ([2]; EVs of hiPSC-derived NPC pool)	Detected in NPC Pool [2, 4]	Avg. Intensity in MEF Discovery Dataset (MEF EVs [3])
ANPALYVLR	9.40E−06	absent	–	–
AETEEGPDVLR	7.94E−05	absent	–	–
NYLSQPSNPSR	1.26E−05	absent	–	–
VAVGELTDEDVK	5.72E−05	absent	–	–
ELPELLQR	5.68E−06	present	–	–
DVAYQYVK	1.09E−05	absent	–	–
NVFLLGFIPAK	–	–	absent	–
DGTISEDTIR	1.06E−06	present	–	–
VGRPEWWMDYQK	1.47E−05	absent	–	–
YGPLADVSIVYDAQSR	5.45E−05	absent	–	–
LTSLLEETLNK	7.77E−04	absent	–	–
TNNSNQNFFK	–	–	absent	9.13E−05
VNTPITTVYR	1.24E−06	present	–	–
ASLISANSDK	9.80E−05	present	–	–
ELPDVLER	1.05E−06	absent	–	–
VELSTGMPR	1.87E−06	absent	–	–
RPFDPNDRCYECGEK	2.42E−05	absent	–	–
FIATLQYIVGR	4.28E−05	absent	–	–
NANNGNLLLR	3.61E−05	absent	–	–
VAVVNQIAR	7.81E−05	absent	–	–
FASSPLR	5.50E−05	absent	–	–
NPVTIFSLATNEMWR	3.90E−04	absent	–	–
ICLDILK	–	–	present	1.25E−05
ALLNVVDSAR	2.03E−05	absent	–	–

Substance	Avg. Intensity in MEF Discovery Dataset (MEF EVs [1])	Detected in NPC Pool ([2]; EVs of hiPSC-derived NPC pool)	Detected in NPC Pool [2, 4]	Avg. Intensity in MEF Discovery Dataset (MEF EVs [3])
VIPSPFK	2.78E−05	absent	–	–
LPVPASAPIPFFIR	8.71E−05	present	–	–
EAKPDELMDSK	–	–	absent	3.24E−05
AGNLGGGVVTIER	3.26E−06	present	–	–
IDLTLLNR	1.15E−06	absent	–	–
TAEEVAALIR	9.76E−05	absent	–	–
IVLSSMEK	2.43E−05	absent	–	–
VQAVVAVAR	7.64E−05	absent	–	–
VAIVTFSSK	2.97E−05	absent	–	–
LTAELQDTK	1.75E−05	absent	–	–
SGDSEVYQMGDVSQK	1.01E−05	absent	–	–
VLDNAIETEK	7.91E−05	absent	–	–
SLLVTELGSSR	3.47E−05	present	–	–
SPAITATLEGK	–	–	absent	2.78E−05
LADALQELR	7.33E−05	absent	–	–
AILGSVER	1.29E−06	present	–	–
AGLSQSLFER	–	–	absent	3.02E−06
YQTIEENIK	2.60E−05	absent	–	–
DLSSVQTLLTK	6.03E−05	absent	–	–
NFLSGALTGLTR	9.45E−05	present	–	–
IISNLFLGR	2.74E−05	absent	–	–
AINFNEGYAK	3.29E−05	absent	–	–
IGDFGMITR	2.87E−05	present	–	–
FAAGSVVSFK	3.29E−05	absent	–	–

Substance	Avg. Intensity in MEF Discovery Dataset (MEF EVs [1])	Detected in NPC Pool ([2]; EVs of hiPSC-derived NPC pool)	Detected in NPC Pool [2, 4]	Avg. Intensity in MEF Discovery Dataset (MEF EVs [3])
SPQLEDEAK	1.96E−05	absent	–	–
VTFNSALAQK	2.17E−05	absent	–	–
VAAALPGMESTQDR	2.88E−05	present	–	–
GFAFVYFENVDDAK	1.11E−05	present	–	–
VVFTPSICK	2.27E−06	present	–	–
VAHSDKPGSTSAVSFR	–	–	absent	1.11E−05
AFSYYGPLR	5.70E−06	absent	–	–
NIQVSHQEFSK	6.56E−06	present	–	–
LDENSAFLQFNWK	6.23E−05	absent	–	–
CPLPGTAAFK	1.17E−06	present	–	–
TMYLEDR	4.40E−05	present	–	–
TNEAQAIETAR	–	–	present	5.41E−05
ILPEQGLMLTGSADK	1.55E−05	absent	–	–
LITAVVMK	6.26E−05	absent	–	–
GDSLAYGLR	7.58E−05	absent	–	–
IGDVVGSSGANQQTSGK	9.56E−04	absent	–	–
LELFLPEEYPMAAPK	–	–	absent	2.00E−05
QDVYDLLK	–	absent	–	–
NLPFTPILASVNR	4.19E−05	absent	–	–
LALASLGYEK	6.77E−06	present	–	–
VSFVKPTYR	2.96E−05	absent	–	–
FAEALITFYSDNSVLHR	2.51E−05	absent	–	–
GAFQQAAQILR	4.72E−05	absent	–	–
LLTSGYLQR	5.68E−05	absent	–	–
